Data: paper PMC7795690
No constants are given. Whether binding was seen depends on the method and setting. In cells and extracts the contact can be indirect. Some binding calls cover weakened binding; strength is not graded here.

Target: His-tagged NudC, Q9Y266
Test: pull-down; Ni-NTA magnetic resin pull-down of His-tagged NudC from lysate of transfected HEK293T cells (48 h; 25 mM Tris, 150 mM NaCl, 1.0 mM EDTA, 1% NP-40, 5% glycerol, pH 7.4); immunoblot of the elution
Details: remark: other sources report otherwise

B1: lissencephaly 1 (Lis1), endogenous in HEK293T cells, P43034 1-410 (protein)
chain: MVLSQRQRDELNRAIADYLRSNGYEEAYSVFKKEAELDVNEELDKKYAGLLEKKWTSVIRLQKKVMELESKLNEAKEEFTSGGPLGQKRDPKEWIPRPPEKYALSGHRSPVTRVIFHPVFSVMVSASEDATIKVWDYETGDFERTLKGHTDSVQDISFDHSGKLLASCSADMTIKLWDFQGFECIRTMHGHDHNVSSVAIMPNGDHIVSASRDKTIKMWEVQTGYCVKTFTGHREWVRMVRPNQDGTLIASCSNDQTVRVWVVATKECKAELREHEHVVECISWAPESSYSSISEATGSETKKSGKPGPFLLSGSRDKTIKMWDVSTGMCLMTLVGHDNWVRGVLFHSGGKFILSCADDKTLRVWDYKNKRCMKTLNAHEHFVTSLDFHKTAPYVVTGSVDQTVKVWECR
For B1, the binding was “binds”.
